According to US7345046B2, “Heteroaryl-fused pyrimidinyl compounds as anticancer agents” (Chiron Corporation, priority 2003, dated 2008):
Some results were stated once for a whole list of compounds, not compound by compound.

Target: T1, motor domain of human KSP (KSP, KNSL1) (Homo sapiens, UniProt P52732)
T1 construct: The motor domain of human KSP (KSP, KNSL1) was cloned and purified; made in house
T1 sequence (P52732 18-359 limits assumed): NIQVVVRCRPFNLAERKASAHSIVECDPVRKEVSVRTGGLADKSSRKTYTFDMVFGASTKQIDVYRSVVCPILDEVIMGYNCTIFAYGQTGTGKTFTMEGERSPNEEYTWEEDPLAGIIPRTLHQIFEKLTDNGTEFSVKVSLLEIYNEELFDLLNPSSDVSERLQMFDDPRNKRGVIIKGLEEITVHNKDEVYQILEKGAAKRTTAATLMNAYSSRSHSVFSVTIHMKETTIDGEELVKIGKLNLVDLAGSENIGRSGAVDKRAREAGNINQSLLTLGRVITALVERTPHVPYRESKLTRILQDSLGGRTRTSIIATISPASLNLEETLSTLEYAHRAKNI
Test: Assay for determining KSP activity (microtubule-stimulated ATPase, Biomol Green phosphate detection)
Type: biochemical
Conditions: procedure of Example 2; 45 nM KSP, 35 ug/mL bovine brain microtubules, 300 uM ATP, 1 hr room temperature; read-out: Eg5 inhibitory activity IC50

Structure (SMILES) | IC50 [µM]
Cc1ccc(C(=O)N(CCCN)C(C(=O)N(C)C)c2nc3cc(Br)sc3c(=O)n2Cc2ccccc2)cc1 (stereo not drawn) [Compound 5, N-(3-aminopropyl)-N-[1-(3-benzyl-6-bromo-4-oxo-3,4-dihydrothieno[3,2-d]pyrimidin-2-yl)-2-(dimethylamino)-2-oxoethyl]-4-methylbenzamide] | < 25
CN(C)C(=O)C(c1nc2cc(Br)sc2c(=O)n1Cc1ccccc1)N(CCCN)C(=O)c1ccc(Cl)cc1 (stereo not drawn) [Compound 3, N-(3-aminopropyl)-N-[1-(3-benzyl-6-bromo-4-oxo-3,4-dihydrothieno[3,2-d]pyrimidin-2-yl)-2-(dimethylamino)-2-oxoethyl]-4-chlorobenzamide] | < 25
CN(C)C(=O)C(c1nc2cc(Br)sc2c(=O)n1Cc1ccccc1)N(CCCN)C(=O)c1ccc(Cl)nc1 (stereo not drawn) [Compound 6, N-(3-aminopropyl)-N-[1-(3-benzyl-6-bromo-4-oxo-3,4-dihydrothieno[3,2-d]pyrimidin-2-yl)-2-(dimethylamino)-2-oxoethyl]-6-chloronicotinamide] | < 25
Cc1ccc(C(=O)N(CCCN)C(C(=O)N(C)C)c2nc3cc(Br)sc3c(=O)n2Cc2ccccc2)cn1 (stereo not drawn) [Compound 4, N-(3-aminopropyl)-N-[1-(3-benzyl-6-bromo-4-oxo-3,4-dihydrothieno[3,2-d]pyrimidin-2-yl)-2-(dimethyiamino)-2-oxoethyl]-6-methylnicotinamide] | < 25
Cc1cnc(C(=O)N(CCCN)C(C(=O)N(C)C)c2nc3cc(Br)sc3c(=O)n2Cc2ccccc2)cn1 (stereo not drawn) [Compound 2, N-(3-aminopropyl)-N-[1-(3-benzyl-6-bromo-4-oxo-3,4-dihydrothieno[3,2-d]pyrimidin-2-yl)-2-(dimethylamino)-2-oxoethyl]-5-methylpyrazine-2-carboxamide] | < 25
CN(C)C(=O)C(c1nc2cc(Br)sc2c(=O)n1Cc1ccccc1)N(CCCN)C(=O)c1cnccn1 (stereo not drawn) [Compound 1, N-(3-aminopropyl)-N-[1-(3-benzyl-6-bromo-4-oxo-3,4-dihydrothieno[3,2-d]pyrimidin-2-yl)-2-(dimethylamino)-2-oxoethyl]pyrazine-2-carboxamide] | < 25
